Source: US8895504B2, “Amylin derivatives” (priority 2008, dated 2014)
At least one structure is not confirmed: it was looked up by name or label, or the drawing left a doubt. Some entries repeat one wording, which the source may state once for all of them. *1 amine or outer side, *2 acyl side, *3 side chain or, on linkers, in order; H or OH if unused. Where a SMILES comes first, the peptide text is derived from it. Bridges are numbered along the chain shown (N, C = ends). The star is where a group is joined. C20 diacid = O=C(O)CCCCCCCCCCCCCCCCCCC(=O)*; γGlu = O=C(O)[C@H](CCC(=O)[*:2])N[*:1]; AEEA = NCCOCCOCC(=O)O; GABA = NCCCC(=O)O

What follows are molecules tested on food intake (assay: Pharmacological Assay (I) - efficacy testing on appetite, ad libitum fed rat model). Settings: 30 nmol/kg vs vehicle, ad libitum fed rats, n=5-7, 0-48 hours.
Assay type: in vivo, Sprague Dawley (SD) rats
In short: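 SD rats, 200-250 g, individually housed on reversed light/dark cycle, ad libitum food and water; single 0.01-3 mg/kg dose ip, po or sc just before lights off, 5-8 rats per dose plus vehicle group. Food intake recorded hourly for 7 h, then at 24 h and sometimes 48 h; Grubbs outliers excluded.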

SMILES	food intake over a period of 48 hours
CC[C@H](C)[C@H](NC(=O)[C@@H]1CCCN1C(=O)CNC(=O)[C@H](Cc1ccccc1)NC(=O)[C@H](CC(N)=O)NC(=O)[C@H](CC(N)=O)NC(=O)[C@H](CO)NC(=O)[C@H](CO)NC(=O)[C@H](Cc1c[nH]cn1)NC(=O)[C@H](Cc1c[nH]cn1)NC(=O)[C@H](CC(C)C)NC(=O)[C@H](Cc1ccccc1)NC(=O)[C@H](CC(N)=O)NC(=O)[C@H](C)NC(=O)[C@H](CC(C)C)NC(=O)[C@H](CCCNC(=N)N)NC(=O)[C@H](CCC(N)=O)NC(=O)[C@@H](NC(=O)[C@H](C)NC(=O)[C@@H]1CSSC[C@H](NC(=O)[C@H](CCCNC(=N)N)NC(=O)[C@H](CCCCN)NC(=O)[C@H](CCC(=O)O)NC(=O)CCCCCCCCCCCCCCCCCCC(=O)O)C(=O)N[C@@H](CC(N)=O)C(=O)N[C@@H]([C@@H](C)O)C(=O)N[C@@H](C)C(=O)N[C@@H]([C@@H](C)O)C(=O)N1)[C@@H](C)O)C(=O)N[C@@H](CC(C)C)C(=O)N1CCC[C@H]1C(=O)N1CCC[C@H]1C(=O)N[C@H](C(=O)N[C@@H](CC(N)=O)C(=O)N[C@H](C(=O)NCC(=O)N[C@@H](CO)C(=O)N[C@@H](CC(N)=O)C(=O)N[C@H](C(=O)N[C@@H](Cc1ccc(O)cc1)C(N)=O)[C@@H](C)O)C(C)C)[C@@H](C)O [Example 8, N-alpha-[19-carboxynonadecanoyl]-Glu-Lys-[Arg1,His17]-pramlintide] ({C20 diacid}-EKRCNTATCATQRLANFLHHSSNNFGPILPPTNVGSNTY-NH2; disulfide 4-9)	effectively reducing food intake
CC[C@H](C)[C@H](NC(=O)[C@@H]1CCCN1C(=O)CNC(=O)[C@H](Cc1ccccc1)NC(=O)[C@H](CC(N)=O)NC(=O)[C@H](CC(N)=O)NC(=O)[C@H](CO)NC(=O)[C@H](CO)NC(=O)[C@H](Cc1c[nH]cn1)NC(=O)[C@H](Cc1c[nH]cn1)NC(=O)[C@H](CC(C)C)NC(=O)[C@H](Cc1ccccc1)NC(=O)[C@H](CC(N)=O)NC(=O)[C@H](C)NC(=O)[C@H](CC(C)C)NC(=O)[C@H](CCCNC(=N)N)NC(=O)[C@H](CCC(N)=O)NC(=O)[C@@H](NC(=O)[C@H](C)NC(=O)[C@@H]1CSSC[C@H](NC(=O)CCCNC(=O)CCCCCCCCCCCCCCCCCCC(=O)O)C(=O)N[C@@H](CC(N)=O)C(=O)N[C@@H]([C@@H](C)O)C(=O)N[C@@H](C)C(=O)N[C@@H]([C@@H](C)O)C(=O)N1)[C@@H](C)O)C(=O)N[C@@H](CC(C)C)C(=O)N1CCC[C@H]1C(=O)N1CCC[C@H]1C(=O)N[C@H](C(=O)N[C@@H](CC(N)=O)C(=O)N[C@H](C(=O)NCC(=O)N[C@@H](CO)C(=O)N[C@@H](CC(N)=O)C(=O)N[C@H](C(=O)N[C@@H](Cc1ccc(O)cc1)C(N)=O)[C@@H](C)O)C(C)C)[C@@H](C)O [Example 30, N-alpha-[4-(19-Carboxynonadecanoylamino)butyryl]-[His17]-pramlintide (2-37)] ({C20 diacid-GABA}-CNTATCATQRLANFLHHSSNNFGPILPPTNVGSNTY-NH2; disulfide 1-6)	effectively reducing food intake
CC[C@H](C)[C@H](NC(=O)[C@@H]1CCCN1C(=O)CNC(=O)[C@H](Cc1ccccc1)NC(=O)[C@H](CC(N)=O)NC(=O)[C@H](CC(N)=O)NC(=O)[C@H](CO)NC(=O)[C@H](CO)NC(=O)[C@H](Cc1c[nH]cn1)NC(=O)[C@H](CCCNC(=N)N)NC(=O)[C@H](CC(C)C)NC(=O)[C@H](Cc1ccccc1)NC(=O)[C@H](CC(N)=O)NC(=O)[C@H](C)NC(=O)[C@H](CC(C)C)NC(=O)[C@H](CCCNC(=N)N)NC(=O)[C@H](CCC(N)=O)NC(=O)[C@@H](NC(=O)[C@H](C)NC(=O)[C@@H]1CSSC[C@H](NC(=O)[C@H](CCCNC(=N)N)NC(=O)[C@H](Cc2c[nH]cn2)NC(=O)[C@H](Cc2c[nH]cn2)NC(=O)COCCOCCNC(=O)CC[C@H](NC(=O)CCCCCCCCCCCCCCCCCCC(=O)O)C(=O)O)C(=O)N[C@@H](CC(N)=O)C(=O)N[C@@H]([C@@H](C)O)C(=O)N[C@@H](C)C(=O)N[C@@H]([C@@H](C)O)C(=O)N1)[C@@H](C)O)C(=O)N[C@@H](CC(C)C)C(=O)N1CCC[C@H]1C(=O)N1CCC[C@H]1C(=O)N[C@H](C(=O)N[C@@H](CC(N)=O)C(=O)N[C@H](C(=O)NCC(=O)N[C@@H](CO)C(=O)N[C@@H](CC(N)=O)C(=O)N[C@H](C(=O)N[C@@H](Cc1ccc(O)cc1)C(N)=O)[C@@H](C)O)C(C)C)[C@@H](C)O [Example 57, N-alpha-[2-(2-{2-[4-(S)-Carboxy-4-(19-carboxynonadecanoylamino)butyrylamino]ethoxy}ethoxy)acetyl]-His-His-[Arg1,Arg17]-pramlintide] ({C20 diacid-γGlu-AEEA}-HHRCNTATCATQRLANFLRHSSNNFGPILPPTNVGSNTY-NH2; disulfide 4-9)	minor reduction in food intake
CC[C@H](C)[C@H](NC(=O)[C@@H]1CCCN1C(=O)CNC(=O)[C@H](Cc1ccccc1)NC(=O)[C@H](CC(N)=O)NC(=O)[C@H](CCC(N)=O)NC(=O)[C@H](CO)NC(=O)[C@H](CO)NC(=O)[C@H](Cc1c[nH]cn1)NC(=O)[C@H](Cc1c[nH]cn1)NC(=O)[C@H](CC(C)C)NC(=O)[C@H](Cc1ccccc1)NC(=O)[C@H](CC(N)=O)NC(=O)[C@H](C)NC(=O)[C@H](CC(C)C)NC(=O)[C@H](CCCNC(=N)N)NC(=O)[C@H](CCC(N)=O)NC(=O)[C@@H](NC(=O)[C@H](C)NC(=O)[C@@H]1CSSC[C@H](NC(=O)[C@H](CCCNC(=N)N)NC(=O)[C@H](Cc2c[nH]cn2)NC(=O)[C@H](Cc2c[nH]cn2)NC(=O)COCCOCCNC(=O)CC[C@H](NC(=O)CCCCCCCCCCCCCCCCCCC(=O)O)C(=O)O)C(=O)N[C@@H](CC(N)=O)C(=O)N[C@@H]([C@@H](C)O)C(=O)N[C@@H](C)C(=O)N[C@@H]([C@@H](C)O)C(=O)N1)[C@@H](C)O)C(=O)N[C@@H](CC(C)C)C(=O)N1CCC[C@H]1C(=O)N1CCC[C@H]1C(=O)N[C@H](C(=O)N[C@@H](CC(N)=O)C(=O)N[C@H](C(=O)NCC(=O)N[C@@H](CO)C(=O)N[C@@H](CC(N)=O)C(=O)N[C@H](C(=O)N[C@@H](Cc1ccc(O)cc1)C(N)=O)[C@@H](C)O)C(C)C)[C@@H](C)O [Example 59, N-alpha-[2-(2-{2-[4-(S)-Carboxy-4-(19-carboxynonadecanoylamino)butyrylamino]ethoxy}ethoxy)acetyl]-His-His-[Arg1His17,Gln21]-pramlintide] ({C20 diacid-γGlu-AEEA}-HHRCNTATCATQRLANFLHHSSQNFGPILPPTNVGSNTY-NH2; disulfide 4-9)	effectively reducing food intake
CC[C@H](C)[C@H](NC(=O)[C@@H]1CCCN1C(=O)CNC(=O)[C@H](Cc1ccccc1)NC(=O)[C@H](CC(N)=O)NC(=O)[C@H](CC(N)=O)NC(=O)[C@H](CO)NC(=O)[C@H](CO)NC(=O)[C@H](Cc1c[nH]cn1)NC(=O)[C@H](CO)NC(=O)[C@H](CC(C)C)NC(=O)[C@H](Cc1ccccc1)NC(=O)[C@H](CC(N)=O)NC(=O)[C@H](C)NC(=O)[C@H](CC(C)C)NC(=O)[C@H](CCCNC(=N)N)NC(=O)[C@H](CCC(N)=O)NC(=O)[C@@H](NC(=O)[C@H](C)NC(=O)[C@@H]1CSSC[C@H](NC(=O)CC[C@H](NC(=O)CCCCCCCCCCCCCCCCCCC(=O)O)C(=O)O)C(=O)N[C@@H](CC(N)=O)C(=O)N[C@@H]([C@@H](C)O)C(=O)N[C@@H](C)C(=O)N[C@@H]([C@@H](C)O)C(=O)N1)[C@@H](C)O)C(=O)N[C@@H](CC(C)C)C(=O)N1CCC[C@H]1C(=O)N1CCC[C@H]1C(=O)N[C@H](C(=O)N[C@@H](CC(N)=O)C(=O)N[C@H](C(=O)NCC(=O)N[C@@H](CO)C(=O)N[C@@H](CC(N)=O)C(=O)N[C@H](C(=O)N[C@@H](Cc1ccc(O)cc1)C(N)=O)[C@@H](C)O)C(C)C)[C@@H](C)O [Example 11, N-alpha-[(S)-4-Carboxy-4-(19-carboxynonadecanoylamino)butyryl]-[Ser17]-pramlintide (2-37)] ({C20 diacid-γGlu}-CNTATCATQRLANFLSHSSNNFGPILPPTNVGSNTY-NH2; disulfide 1-6)	effectively reducing food intake
CC[C@H](C)[C@H](NC(=O)[C@@H]1CCCN1C(=O)CNC(=O)[C@H](Cc1ccccc1)NC(=O)[C@H](CC(N)=O)NC(=O)[C@H](CC(N)=O)NC(=O)[C@H](CO)NC(=O)[C@H](CO)NC(=O)[C@H](Cc1c[nH]cn1)NC(=O)CNC(=O)[C@H](CC(C)C)NC(=O)[C@H](Cc1ccccc1)NC(=O)[C@H](CC(N)=O)NC(=O)[C@H](C)NC(=O)[C@H](CC(C)C)NC(=O)[C@H](CCCNC(=N)N)NC(=O)[C@H](CCC(N)=O)NC(=O)[C@@H](NC(=O)[C@H](C)NC(=O)[C@@H]1CSSC[C@H](NC(=O)[C@H](CCCCN)NC(=O)[C@H](CCCNC(=N)N)NC(=O)CC[C@H](NC(=O)CCCCCCCCCCCCCCCCCCC(=O)O)C(=O)O)C(=O)N[C@@H](CC(N)=O)C(=O)N[C@@H]([C@@H](C)O)C(=O)N[C@@H](C)C(=O)N[C@@H]([C@@H](C)O)C(=O)N1)[C@@H](C)O)C(=O)N[C@@H](CC(C)C)C(=O)N1CCC[C@H]1C(=O)N1CCC[C@H]1C(=O)N[C@H](C(=O)N[C@@H](CC(N)=O)C(=O)N[C@H](C(=O)NCC(=O)N[C@@H](CO)C(=O)N[C@@H](CC(N)=O)C(=O)N[C@H](C(=O)N[C@@H](Cc1ccc(O)cc1)C(N)=O)[C@@H](C)O)C(C)C)[C@@H](C)O [Example 18, N-alpha-[(S)-4-Carboxy-4-(19-carboxynonadecanoylamino)butyryl]-Arg-[Gly17]-pramlintide] ({C20 diacid-γGlu}-RKCNTATCATQRLANFLGHSSNNFGPILPPTNVGSNTY-NH2; disulfide 3-8)	effectively reducing food intake
